These are yes or no findings as the source states them, for the method shown. In cells and extracts the contact can be indirect.
Assays:
[1] = target: SSeCKS (Src-Suppressed C Kinase Substrate) (mouse (endogenous in MEF)) (UniProt Q9WTQ5); experiment: co-IP; lysate not stated; no figure
[2] = target: SSeCKS (Src-Suppressed C Kinase Substrate) (mouse (endogenous in MEF)) (UniProt Q9WTQ5); experiment: co-IP; WT MEF lysates; no figure

By UniProt entry, the sequences of proteins in these tests, tags left out.
UniProt Q9WTQ5: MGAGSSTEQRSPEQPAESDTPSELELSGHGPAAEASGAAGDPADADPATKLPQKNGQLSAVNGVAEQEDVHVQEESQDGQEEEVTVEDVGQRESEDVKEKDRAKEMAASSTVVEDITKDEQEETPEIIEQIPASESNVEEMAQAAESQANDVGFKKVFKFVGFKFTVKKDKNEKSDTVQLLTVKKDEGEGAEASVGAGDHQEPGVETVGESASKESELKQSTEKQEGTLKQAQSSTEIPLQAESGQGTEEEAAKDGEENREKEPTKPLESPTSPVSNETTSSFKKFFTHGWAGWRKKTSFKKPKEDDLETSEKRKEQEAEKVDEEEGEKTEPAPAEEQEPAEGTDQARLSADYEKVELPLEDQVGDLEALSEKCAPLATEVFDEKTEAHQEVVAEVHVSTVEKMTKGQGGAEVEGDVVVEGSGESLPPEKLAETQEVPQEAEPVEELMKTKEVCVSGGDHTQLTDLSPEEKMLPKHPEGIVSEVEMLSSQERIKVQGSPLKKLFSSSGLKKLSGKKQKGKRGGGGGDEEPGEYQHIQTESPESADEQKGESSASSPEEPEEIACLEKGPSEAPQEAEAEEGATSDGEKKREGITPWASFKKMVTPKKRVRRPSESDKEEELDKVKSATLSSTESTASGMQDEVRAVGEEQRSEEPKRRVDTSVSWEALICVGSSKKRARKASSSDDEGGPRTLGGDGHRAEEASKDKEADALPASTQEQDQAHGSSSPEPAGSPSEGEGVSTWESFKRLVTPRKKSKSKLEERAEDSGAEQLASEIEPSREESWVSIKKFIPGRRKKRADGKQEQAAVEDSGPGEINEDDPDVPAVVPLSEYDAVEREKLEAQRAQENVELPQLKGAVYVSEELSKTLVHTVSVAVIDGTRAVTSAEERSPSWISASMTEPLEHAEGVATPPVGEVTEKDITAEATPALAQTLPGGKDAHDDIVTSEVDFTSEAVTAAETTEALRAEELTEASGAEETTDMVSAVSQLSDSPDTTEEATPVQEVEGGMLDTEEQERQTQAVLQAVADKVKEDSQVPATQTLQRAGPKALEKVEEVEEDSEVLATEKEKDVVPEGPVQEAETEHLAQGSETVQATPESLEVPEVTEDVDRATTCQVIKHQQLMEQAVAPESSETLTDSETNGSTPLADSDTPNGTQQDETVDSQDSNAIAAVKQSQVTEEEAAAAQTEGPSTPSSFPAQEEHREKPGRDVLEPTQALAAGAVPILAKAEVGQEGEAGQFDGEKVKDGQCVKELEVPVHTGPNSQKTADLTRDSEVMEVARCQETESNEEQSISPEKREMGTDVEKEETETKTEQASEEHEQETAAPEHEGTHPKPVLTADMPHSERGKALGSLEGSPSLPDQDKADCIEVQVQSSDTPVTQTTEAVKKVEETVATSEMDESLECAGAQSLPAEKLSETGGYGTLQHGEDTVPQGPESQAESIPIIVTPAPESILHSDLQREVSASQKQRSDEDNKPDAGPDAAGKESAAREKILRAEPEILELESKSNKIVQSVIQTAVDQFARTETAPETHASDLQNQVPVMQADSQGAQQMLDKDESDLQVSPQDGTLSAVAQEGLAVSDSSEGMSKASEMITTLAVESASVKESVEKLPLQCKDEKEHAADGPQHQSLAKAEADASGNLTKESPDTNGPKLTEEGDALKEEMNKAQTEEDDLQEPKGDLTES
UniProt P60766: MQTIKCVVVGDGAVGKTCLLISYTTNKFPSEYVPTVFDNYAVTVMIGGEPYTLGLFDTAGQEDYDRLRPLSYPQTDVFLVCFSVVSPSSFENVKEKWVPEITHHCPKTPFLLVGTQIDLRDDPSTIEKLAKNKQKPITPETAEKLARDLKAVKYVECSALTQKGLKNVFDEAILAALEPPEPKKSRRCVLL

Cdc42 (from UniProt P60766 1-191)
binding [1]: no binding

B1: Frabin (FGD1-related F-actin binding protein) (protein, UniProt Q91ZT5 1-766)
chain: MEESNPAPTSCTSKGKHSKVSDLISHFEGGSVLSSYIDLQKDSTMNLNIPQTLGQPGLTSSPPRKFLPQHSPQKQENDPDQTQGQHGCLANGVVAAQNQMECEDEKETTLSPEMAIQTAAASPDTHVLNGERNETITDSASSIANSHDENASDSSCRTPGTDLGLPSKEGEPGMDAELQERENGVNTMGLDTLDQHHEVKETNEQKLHKIATELLLTERAYVSRLDLLDQVFYCKLLEEANRGSFPAEMVNKIFSNISSINAFHSKFLLPELEKRMQEWETTPRIGDILQKLAPFLKMYGEYVKGFDNAVELVKTMTERVPQFKSVTEEIQKQKICGSLTLQHHMLEPIQRIPRYEMLLKDYLKKLSPDSPDWNDAKKSLEIISTAASHSNSAIRKMENLKKLLEIYEMLGEEEDIVNPSNELIKEGQILKLAARNTSAQERYLFLFNNMLLYCVPRFSLVGSKFTVRTRVGIDGMKIVETHNEEYPHTFQISGKERTLELQASSEQDKEEWIKALQESIDAFHQRHETFRNAIAKENDIPLEVSTAELGKRAPRWIRDNEVTMCMKCKESFNALTRRRHHCRACGHVVCWKCSDYKAQLEYDGGRLNKVCKDCYQIISGFTDSEEKKRRGILEIESAEVSGNSEVCSFLQYMEKSKPWQKIWCVIPKQDPLVLYMYGAPQDVRAQATIPLLGYVVDDMPKSADLPHSFKLTQSKSVHSFAADNEELKQKWLKIILLAVTGETPDGPSEHLATLNNLPGPKKKSEC
binding [2]: no binding

From paper PMC4214753
